Source: PMC7808408
No constants are given. Whether binding was seen depends on the method and setting. Binding seen in cells or lysates may run through a third protein. Here binding means that the protein was enriched with, or labelled near, the bait; the list need not be complete.

Amino acid sequences for entries named in this document (tags omitted). Residues count along the entry.
MERS-CoV Nsp1 (K9N7C7, residues 1-193): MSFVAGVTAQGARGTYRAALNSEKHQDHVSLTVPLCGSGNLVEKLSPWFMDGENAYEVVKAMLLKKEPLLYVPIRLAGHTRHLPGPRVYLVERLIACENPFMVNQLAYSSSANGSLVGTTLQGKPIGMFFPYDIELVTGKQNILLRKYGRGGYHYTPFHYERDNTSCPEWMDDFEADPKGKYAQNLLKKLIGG
MERS-CoV Nsp7 (K9N7C7, residues 3846-3928): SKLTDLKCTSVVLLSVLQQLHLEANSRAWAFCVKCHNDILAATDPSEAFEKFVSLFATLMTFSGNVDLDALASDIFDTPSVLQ
MERS-CoV Nsp14 (K9N7C7, residues 5909-6432): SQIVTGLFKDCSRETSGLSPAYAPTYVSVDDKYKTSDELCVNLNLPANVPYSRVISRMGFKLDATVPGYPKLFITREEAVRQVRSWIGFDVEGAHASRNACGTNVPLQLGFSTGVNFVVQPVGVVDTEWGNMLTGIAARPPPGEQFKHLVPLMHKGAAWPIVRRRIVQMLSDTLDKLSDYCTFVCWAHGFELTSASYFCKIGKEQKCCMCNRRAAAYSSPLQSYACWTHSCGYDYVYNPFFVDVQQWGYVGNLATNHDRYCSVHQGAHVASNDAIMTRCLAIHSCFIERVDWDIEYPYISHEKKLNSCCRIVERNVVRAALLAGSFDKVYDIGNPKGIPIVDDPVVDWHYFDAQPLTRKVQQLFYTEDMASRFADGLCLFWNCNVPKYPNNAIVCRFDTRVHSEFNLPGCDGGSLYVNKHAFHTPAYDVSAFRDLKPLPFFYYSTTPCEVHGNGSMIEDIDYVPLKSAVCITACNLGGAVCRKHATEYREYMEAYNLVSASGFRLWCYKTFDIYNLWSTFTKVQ
UniProt Q9H7Z7: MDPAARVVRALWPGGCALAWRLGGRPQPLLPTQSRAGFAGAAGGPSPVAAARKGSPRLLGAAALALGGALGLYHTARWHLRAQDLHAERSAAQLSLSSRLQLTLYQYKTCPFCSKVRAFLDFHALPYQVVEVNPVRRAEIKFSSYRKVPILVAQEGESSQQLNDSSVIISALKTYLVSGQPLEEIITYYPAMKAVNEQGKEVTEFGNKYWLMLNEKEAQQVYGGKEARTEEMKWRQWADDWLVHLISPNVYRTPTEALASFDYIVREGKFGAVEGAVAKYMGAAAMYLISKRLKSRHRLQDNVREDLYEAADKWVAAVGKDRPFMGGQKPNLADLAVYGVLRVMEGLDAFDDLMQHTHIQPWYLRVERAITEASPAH
UniProt Q92878: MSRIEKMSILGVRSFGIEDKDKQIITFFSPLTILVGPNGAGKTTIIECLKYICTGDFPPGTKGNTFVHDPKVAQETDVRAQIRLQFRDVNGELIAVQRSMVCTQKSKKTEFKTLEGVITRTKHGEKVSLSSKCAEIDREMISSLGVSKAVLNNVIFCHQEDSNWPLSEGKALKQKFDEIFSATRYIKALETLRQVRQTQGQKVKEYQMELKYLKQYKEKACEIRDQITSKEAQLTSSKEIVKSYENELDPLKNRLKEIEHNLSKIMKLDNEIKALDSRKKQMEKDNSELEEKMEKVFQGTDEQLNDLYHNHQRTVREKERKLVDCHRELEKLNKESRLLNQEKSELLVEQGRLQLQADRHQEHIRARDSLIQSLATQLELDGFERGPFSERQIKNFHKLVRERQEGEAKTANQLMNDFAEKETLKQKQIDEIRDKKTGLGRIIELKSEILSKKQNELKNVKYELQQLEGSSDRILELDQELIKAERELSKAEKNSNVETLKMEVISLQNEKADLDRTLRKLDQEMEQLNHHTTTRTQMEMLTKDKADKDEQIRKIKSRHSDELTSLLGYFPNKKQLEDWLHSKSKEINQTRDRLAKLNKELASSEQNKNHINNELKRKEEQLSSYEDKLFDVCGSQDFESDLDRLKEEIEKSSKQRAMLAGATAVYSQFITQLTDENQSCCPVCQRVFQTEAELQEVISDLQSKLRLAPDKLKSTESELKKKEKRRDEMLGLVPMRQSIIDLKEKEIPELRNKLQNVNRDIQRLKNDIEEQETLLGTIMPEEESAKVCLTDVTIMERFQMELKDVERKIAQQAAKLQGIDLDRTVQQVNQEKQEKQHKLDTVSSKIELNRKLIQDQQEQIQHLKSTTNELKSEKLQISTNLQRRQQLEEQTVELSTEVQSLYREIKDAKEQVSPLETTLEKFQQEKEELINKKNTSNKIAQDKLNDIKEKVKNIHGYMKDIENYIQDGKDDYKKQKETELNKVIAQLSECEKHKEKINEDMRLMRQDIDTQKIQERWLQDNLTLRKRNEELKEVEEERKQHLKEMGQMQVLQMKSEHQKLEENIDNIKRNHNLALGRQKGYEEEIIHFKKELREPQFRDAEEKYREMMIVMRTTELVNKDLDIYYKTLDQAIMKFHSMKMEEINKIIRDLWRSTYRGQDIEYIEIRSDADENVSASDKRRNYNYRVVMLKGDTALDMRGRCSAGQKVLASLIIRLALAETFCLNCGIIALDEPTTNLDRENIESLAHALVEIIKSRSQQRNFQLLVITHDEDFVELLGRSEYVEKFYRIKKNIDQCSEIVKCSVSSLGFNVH
UniProt P40763: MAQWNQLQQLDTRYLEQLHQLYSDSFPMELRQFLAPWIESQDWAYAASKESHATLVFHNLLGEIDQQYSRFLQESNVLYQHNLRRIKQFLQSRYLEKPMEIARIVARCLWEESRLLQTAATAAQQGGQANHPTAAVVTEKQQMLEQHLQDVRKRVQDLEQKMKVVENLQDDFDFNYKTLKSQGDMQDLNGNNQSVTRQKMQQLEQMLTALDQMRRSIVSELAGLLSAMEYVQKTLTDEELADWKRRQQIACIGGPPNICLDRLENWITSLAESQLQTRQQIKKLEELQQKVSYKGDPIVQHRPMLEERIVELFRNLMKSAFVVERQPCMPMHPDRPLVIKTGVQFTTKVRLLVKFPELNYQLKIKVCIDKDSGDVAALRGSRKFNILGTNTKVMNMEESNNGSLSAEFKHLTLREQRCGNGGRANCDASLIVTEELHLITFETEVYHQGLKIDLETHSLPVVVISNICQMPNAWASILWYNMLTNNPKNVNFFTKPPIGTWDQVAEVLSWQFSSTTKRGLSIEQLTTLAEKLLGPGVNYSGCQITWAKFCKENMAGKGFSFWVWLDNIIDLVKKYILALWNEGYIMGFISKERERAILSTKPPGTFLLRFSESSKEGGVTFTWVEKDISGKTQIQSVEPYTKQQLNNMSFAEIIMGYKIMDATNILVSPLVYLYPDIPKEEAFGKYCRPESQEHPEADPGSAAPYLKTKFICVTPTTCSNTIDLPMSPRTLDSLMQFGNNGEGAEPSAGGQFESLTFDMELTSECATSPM
UniProt O95071: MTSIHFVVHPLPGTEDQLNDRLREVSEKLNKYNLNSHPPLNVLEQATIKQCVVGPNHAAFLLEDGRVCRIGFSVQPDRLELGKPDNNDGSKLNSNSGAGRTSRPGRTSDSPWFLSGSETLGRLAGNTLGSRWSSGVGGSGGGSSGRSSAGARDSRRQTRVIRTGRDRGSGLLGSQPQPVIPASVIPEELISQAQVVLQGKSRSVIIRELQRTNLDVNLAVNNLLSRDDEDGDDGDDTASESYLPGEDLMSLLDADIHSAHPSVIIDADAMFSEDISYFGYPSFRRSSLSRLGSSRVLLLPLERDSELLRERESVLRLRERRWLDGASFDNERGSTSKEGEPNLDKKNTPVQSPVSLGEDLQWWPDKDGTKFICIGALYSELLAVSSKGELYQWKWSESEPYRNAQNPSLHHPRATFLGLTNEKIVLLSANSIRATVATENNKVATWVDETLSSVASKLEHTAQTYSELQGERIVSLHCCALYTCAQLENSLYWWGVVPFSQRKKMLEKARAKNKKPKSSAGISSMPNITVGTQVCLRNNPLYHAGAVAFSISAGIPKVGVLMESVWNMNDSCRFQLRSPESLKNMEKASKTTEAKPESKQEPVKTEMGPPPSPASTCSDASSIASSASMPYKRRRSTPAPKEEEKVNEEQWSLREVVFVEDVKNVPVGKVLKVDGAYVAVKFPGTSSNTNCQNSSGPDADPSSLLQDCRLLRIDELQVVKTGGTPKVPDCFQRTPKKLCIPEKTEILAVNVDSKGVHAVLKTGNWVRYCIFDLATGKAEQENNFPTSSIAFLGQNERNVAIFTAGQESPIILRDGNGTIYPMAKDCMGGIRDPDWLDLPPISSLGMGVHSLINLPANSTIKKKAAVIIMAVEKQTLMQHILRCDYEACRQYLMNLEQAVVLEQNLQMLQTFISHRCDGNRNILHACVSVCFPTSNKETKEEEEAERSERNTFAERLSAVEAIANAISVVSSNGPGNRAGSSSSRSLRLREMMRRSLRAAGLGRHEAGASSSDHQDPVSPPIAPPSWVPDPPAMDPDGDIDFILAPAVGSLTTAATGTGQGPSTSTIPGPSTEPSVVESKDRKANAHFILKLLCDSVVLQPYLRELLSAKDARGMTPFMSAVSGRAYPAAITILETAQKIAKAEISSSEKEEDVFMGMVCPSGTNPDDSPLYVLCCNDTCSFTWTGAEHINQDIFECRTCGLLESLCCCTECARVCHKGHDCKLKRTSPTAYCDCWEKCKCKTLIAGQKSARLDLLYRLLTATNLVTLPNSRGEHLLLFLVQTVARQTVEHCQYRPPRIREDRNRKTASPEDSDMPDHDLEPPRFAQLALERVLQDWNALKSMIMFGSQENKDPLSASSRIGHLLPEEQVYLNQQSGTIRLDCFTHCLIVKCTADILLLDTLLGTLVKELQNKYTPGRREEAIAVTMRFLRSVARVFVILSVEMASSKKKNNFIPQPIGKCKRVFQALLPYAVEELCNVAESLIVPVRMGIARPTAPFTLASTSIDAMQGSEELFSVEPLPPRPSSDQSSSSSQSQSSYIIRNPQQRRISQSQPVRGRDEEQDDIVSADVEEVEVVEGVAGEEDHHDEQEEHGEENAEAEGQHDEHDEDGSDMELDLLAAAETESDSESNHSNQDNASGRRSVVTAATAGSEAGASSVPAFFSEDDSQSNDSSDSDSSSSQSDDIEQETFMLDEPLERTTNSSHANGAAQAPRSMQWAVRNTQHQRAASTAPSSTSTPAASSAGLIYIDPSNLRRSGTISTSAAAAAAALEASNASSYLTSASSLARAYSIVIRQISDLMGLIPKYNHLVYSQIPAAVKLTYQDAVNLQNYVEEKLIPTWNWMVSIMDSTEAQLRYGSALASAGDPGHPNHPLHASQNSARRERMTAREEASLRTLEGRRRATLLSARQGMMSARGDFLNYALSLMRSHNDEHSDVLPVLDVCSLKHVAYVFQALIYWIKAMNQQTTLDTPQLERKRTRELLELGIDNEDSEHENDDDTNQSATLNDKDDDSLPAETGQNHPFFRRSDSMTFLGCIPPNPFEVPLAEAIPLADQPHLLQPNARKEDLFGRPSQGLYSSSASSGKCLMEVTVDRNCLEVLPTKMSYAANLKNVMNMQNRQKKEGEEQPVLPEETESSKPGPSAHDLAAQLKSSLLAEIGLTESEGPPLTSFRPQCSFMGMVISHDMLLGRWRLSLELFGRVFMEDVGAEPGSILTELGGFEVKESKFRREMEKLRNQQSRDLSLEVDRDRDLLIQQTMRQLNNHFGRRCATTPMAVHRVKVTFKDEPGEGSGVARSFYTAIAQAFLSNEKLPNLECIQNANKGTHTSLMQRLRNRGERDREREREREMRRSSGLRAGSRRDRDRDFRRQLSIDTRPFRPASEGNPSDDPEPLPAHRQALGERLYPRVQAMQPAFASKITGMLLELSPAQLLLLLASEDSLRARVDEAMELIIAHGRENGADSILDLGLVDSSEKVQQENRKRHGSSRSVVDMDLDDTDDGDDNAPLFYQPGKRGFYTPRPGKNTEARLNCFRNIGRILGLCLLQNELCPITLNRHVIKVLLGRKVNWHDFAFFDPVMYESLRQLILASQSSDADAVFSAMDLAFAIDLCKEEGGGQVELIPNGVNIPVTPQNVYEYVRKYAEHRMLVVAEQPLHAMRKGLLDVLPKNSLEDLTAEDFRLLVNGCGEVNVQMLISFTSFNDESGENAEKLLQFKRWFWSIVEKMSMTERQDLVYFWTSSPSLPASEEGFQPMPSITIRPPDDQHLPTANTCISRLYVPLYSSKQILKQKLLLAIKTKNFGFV

Tests used:
Assay in all cases: affinity purification with mass spectrometry
MERS-CoV Nsp7 (MERS-CoV) = MERS-CoV Nsp7 (MERS-CoV) (UniProt K9N7C7)
[1] = molecular target: MERS-CoV Nsp14 (MERS-CoV) (UniProt K9N7C7)
MERS-CoV Nsp1 (MERS-CoV) = MERS-CoV Nsp1 (MERS-CoV) (UniProt K9N7C7)

Substance	binding [1]	other results
Prostaglandin E synthase 2 (PGES2) (from UniProt Q9H7Z7 1-377) (enzyme)	–	binding (MERS-CoV Nsp7 (MERS-CoV)): binds
RAD50 (from UniProt Q92878 1-1312)	binds	–
Stat3 (from UniProt P40763 1-770)	–	binding (MERS-CoV Nsp1 (MERS-CoV)): binds
UBR5 (from UniProt O95071 1-2799)	binds	–
inosine 5′-monophosphate (IMP) dehydrogenase 2 (IMPDH2) (from UniProt P12268 1-514) (enzyme)	binds	–
